# In the supplement of paper PMC10849652:
# Sequences of proteins named here, by UniProt entry; tags and fusion partners are left off. A change or cut given only in a name is not applied to a line headed by its entry.
# UniProt Q9UK99: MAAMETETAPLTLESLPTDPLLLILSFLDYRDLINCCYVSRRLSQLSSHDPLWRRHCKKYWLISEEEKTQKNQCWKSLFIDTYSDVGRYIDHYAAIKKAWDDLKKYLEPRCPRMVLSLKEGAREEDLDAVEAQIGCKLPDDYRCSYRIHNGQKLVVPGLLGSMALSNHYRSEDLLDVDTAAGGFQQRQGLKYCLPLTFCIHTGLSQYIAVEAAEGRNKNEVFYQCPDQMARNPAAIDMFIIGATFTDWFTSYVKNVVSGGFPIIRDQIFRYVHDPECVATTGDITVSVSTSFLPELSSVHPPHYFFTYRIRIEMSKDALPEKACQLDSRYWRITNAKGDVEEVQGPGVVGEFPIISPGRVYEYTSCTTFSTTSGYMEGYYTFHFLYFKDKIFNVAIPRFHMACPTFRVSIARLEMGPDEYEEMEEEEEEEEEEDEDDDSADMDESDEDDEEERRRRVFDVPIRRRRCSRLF
# UniProt P37268: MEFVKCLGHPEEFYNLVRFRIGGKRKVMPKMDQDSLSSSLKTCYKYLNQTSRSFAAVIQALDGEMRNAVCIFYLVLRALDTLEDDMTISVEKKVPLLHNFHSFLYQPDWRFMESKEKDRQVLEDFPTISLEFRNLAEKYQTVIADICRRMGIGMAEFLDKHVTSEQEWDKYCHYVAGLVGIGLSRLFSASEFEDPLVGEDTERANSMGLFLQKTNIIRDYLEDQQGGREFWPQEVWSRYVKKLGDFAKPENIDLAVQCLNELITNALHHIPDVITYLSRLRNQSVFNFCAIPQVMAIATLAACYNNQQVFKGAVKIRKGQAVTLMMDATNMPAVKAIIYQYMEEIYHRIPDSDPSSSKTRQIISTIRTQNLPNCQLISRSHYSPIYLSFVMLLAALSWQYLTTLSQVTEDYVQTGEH
# UniProt Q8TDW7: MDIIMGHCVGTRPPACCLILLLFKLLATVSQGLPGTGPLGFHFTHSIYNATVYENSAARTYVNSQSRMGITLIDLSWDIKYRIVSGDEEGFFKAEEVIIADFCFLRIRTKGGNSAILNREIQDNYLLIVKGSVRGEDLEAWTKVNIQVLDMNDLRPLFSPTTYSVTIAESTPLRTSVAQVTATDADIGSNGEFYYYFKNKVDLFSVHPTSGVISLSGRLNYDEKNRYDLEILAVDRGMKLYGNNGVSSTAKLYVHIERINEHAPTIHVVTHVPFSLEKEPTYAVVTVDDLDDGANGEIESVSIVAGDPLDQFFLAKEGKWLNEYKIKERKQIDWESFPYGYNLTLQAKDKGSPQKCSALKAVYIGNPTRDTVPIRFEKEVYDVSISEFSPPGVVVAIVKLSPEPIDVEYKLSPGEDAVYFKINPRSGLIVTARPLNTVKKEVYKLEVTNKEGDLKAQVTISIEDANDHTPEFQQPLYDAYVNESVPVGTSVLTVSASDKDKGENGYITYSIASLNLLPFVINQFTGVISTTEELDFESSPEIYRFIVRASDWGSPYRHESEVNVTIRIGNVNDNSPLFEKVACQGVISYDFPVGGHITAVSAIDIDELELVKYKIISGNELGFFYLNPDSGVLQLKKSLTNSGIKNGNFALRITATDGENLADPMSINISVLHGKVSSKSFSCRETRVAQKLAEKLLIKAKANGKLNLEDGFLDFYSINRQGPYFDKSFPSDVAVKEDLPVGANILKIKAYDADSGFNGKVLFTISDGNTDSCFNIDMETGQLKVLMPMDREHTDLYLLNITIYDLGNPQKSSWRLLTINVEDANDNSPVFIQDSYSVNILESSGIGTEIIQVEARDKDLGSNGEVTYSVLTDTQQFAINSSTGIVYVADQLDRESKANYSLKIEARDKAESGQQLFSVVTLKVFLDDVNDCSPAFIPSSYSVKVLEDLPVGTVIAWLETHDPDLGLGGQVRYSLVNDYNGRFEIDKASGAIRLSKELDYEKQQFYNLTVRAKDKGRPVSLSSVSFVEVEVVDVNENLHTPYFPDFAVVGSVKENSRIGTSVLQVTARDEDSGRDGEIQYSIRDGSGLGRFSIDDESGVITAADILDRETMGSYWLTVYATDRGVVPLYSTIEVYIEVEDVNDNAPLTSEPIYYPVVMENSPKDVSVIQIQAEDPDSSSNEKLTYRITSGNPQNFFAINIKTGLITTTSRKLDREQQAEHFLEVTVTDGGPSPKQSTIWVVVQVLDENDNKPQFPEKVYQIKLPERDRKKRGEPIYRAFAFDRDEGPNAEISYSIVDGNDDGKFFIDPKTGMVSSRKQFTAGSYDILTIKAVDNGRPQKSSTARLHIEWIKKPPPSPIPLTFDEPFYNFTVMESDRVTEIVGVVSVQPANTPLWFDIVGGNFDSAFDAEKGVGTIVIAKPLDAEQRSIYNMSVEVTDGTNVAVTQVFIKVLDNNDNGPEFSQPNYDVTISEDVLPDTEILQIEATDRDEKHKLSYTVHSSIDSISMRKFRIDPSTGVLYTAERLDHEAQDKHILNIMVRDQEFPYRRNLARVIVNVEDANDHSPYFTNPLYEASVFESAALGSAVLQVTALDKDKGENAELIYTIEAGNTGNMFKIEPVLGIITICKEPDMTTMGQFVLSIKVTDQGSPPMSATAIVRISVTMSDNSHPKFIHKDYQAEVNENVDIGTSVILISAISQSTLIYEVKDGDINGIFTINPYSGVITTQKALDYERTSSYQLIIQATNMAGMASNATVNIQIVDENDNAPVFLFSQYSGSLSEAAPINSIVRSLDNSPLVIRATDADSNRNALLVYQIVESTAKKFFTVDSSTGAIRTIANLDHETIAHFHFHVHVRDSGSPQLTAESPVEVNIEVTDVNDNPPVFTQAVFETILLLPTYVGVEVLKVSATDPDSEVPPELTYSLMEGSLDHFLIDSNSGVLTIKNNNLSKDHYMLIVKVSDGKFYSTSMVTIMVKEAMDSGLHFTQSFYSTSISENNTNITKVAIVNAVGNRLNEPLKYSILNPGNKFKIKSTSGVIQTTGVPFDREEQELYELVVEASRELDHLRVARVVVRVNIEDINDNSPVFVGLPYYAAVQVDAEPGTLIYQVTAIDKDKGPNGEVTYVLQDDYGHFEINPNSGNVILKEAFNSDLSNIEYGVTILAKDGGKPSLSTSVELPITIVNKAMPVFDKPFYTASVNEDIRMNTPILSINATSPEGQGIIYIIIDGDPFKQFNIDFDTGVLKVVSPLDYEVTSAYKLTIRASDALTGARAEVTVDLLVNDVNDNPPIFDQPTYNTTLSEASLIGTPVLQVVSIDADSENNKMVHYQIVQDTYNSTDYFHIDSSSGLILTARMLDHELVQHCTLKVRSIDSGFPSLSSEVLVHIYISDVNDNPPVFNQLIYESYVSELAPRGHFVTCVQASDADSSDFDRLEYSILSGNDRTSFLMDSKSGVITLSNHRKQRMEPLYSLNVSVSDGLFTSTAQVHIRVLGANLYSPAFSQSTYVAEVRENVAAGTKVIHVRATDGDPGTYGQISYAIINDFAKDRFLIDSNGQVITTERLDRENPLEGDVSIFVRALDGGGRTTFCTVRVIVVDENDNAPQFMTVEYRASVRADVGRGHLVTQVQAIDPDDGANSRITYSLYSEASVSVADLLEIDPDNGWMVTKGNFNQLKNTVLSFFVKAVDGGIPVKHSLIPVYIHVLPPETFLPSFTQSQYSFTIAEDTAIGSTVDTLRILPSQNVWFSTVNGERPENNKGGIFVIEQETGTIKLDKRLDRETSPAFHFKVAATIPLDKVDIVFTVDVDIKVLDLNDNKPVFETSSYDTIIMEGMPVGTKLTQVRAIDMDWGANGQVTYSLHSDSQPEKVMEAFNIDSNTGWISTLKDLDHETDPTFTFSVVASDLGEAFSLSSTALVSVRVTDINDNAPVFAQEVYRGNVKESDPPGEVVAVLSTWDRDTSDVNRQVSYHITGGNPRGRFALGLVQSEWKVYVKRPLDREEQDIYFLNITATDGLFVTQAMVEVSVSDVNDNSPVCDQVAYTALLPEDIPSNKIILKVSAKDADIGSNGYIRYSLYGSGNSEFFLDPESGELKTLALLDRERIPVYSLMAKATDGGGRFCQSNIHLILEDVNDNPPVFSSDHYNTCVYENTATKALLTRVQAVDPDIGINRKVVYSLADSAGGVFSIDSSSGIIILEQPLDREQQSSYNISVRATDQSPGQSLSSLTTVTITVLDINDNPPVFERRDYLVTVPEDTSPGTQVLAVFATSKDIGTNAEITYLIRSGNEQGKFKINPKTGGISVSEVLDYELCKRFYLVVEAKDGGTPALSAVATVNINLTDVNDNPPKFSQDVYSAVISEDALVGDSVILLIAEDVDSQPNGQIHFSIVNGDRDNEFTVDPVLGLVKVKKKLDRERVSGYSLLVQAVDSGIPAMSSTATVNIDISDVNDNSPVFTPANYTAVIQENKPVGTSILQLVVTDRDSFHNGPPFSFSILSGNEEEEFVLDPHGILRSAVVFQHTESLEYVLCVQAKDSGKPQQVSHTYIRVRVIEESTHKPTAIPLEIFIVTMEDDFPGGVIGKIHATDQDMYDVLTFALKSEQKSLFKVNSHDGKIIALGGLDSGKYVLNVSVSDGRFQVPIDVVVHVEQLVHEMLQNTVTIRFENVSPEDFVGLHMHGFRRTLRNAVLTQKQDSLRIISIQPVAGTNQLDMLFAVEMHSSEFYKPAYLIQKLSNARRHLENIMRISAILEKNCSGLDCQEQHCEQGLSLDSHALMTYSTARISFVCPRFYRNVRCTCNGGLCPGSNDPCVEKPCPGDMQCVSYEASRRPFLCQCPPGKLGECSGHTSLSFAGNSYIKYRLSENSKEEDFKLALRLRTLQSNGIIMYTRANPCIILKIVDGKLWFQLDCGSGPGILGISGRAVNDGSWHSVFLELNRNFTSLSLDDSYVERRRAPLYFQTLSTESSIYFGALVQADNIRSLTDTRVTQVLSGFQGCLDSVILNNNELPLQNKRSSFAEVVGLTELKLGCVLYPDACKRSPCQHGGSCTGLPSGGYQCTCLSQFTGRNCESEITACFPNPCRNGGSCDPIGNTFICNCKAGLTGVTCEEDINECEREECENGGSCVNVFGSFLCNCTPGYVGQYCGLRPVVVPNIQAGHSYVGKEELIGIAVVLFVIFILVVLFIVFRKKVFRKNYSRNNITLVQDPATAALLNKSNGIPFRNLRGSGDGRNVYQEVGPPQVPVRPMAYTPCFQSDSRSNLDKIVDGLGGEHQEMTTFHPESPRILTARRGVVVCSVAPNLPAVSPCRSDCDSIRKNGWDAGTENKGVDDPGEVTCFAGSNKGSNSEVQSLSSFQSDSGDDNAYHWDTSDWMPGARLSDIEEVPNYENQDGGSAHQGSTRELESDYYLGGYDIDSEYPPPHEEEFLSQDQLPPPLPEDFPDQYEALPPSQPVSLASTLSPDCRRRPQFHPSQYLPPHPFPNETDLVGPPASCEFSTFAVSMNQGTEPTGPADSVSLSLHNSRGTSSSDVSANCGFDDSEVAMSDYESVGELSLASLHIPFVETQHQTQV
# UniProt Q9Y3D6: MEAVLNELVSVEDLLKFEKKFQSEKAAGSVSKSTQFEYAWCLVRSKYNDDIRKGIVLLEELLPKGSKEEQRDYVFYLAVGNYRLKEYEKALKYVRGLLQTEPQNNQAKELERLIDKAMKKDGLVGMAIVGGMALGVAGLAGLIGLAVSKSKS
# UniProt Q9Y3I1: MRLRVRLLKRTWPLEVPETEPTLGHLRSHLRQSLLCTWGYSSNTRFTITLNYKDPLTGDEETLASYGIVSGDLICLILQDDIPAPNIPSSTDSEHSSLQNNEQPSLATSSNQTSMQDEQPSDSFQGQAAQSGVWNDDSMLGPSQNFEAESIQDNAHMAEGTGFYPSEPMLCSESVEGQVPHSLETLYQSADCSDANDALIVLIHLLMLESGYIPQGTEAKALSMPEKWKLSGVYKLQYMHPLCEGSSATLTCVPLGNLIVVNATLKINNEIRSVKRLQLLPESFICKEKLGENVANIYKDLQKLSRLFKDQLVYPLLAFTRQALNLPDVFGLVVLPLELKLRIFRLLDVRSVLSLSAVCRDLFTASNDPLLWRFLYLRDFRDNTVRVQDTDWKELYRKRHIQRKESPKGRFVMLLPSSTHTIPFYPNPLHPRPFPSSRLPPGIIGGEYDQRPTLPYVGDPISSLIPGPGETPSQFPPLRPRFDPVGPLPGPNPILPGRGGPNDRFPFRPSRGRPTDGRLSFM
# UniProt Q02790: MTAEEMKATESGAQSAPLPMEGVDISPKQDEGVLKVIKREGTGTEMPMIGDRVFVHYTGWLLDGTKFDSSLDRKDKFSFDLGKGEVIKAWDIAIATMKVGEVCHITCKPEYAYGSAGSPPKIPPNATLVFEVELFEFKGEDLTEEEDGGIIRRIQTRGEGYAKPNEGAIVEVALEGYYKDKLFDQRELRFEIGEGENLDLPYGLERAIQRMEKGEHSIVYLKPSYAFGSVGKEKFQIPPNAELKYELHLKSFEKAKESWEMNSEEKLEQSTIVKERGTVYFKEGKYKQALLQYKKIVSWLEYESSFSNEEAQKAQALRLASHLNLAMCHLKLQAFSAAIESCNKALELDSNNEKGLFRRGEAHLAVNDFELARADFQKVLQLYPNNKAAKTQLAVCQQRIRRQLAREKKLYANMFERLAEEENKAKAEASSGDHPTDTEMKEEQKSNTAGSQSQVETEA
# The list shows a part of the results.
# Legend:
# Test in all cases: log2 fold change, soluble protein after heating vs DMSO (PISA); higher = thermal stabilisation; K562 cells, 10 uM, 30 min; active = over 0.2 and 3.5 SD of the protein, either way, in both replicates (recomputed)
# saracatinib = compound: CN1CCN(CCOc2cc(OC3CCOCC3)c3c(Nc4c(Cl)ccc5c4OCO5)ncnc3c2)CC1 [saracatinib]
# Outline: (§1)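 K562 cells (2×10^6 cells/mL) were treated with 10 μM compound for 30 min, and aliquots were heated for 3 min over 48°C-58°C. Pooled aliquots were extracted in PBS with 0.5% NP-40 at 4°C, and the supernatant after 21,000xg for 90 min was measured by TMTpro 16plex LC-MS/MS with channel sums equalised. Reported thermal stability, relative to control samples and from duplicates, is a log2 fold change.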
# alvocidib = compound: CN1CC[C@H](c2c(O)cc(O)c3c(=O)cc(-c4ccccc4Cl)oc23)[C@H](O)C1 [alvocidib]
# Outline: as §1
# Tubastatin A = compound: CN1CCc2c(c3ccccc3n2Cc2ccc(C(=O)NO)cc2)C1 [Tubastatin A]
# Outline: as §1
# [1] = compound: CNC(=O)C1=CC=CC=C1NC2=NC(=NC=C2Cl)NC3=C(C=C(C=C3)N4CCOCC4)OC
# Outline: as §1
# defactinib = compound: CNC(=O)c1ccc(Nc2ncc(C(F)(F)F)c(NCc3nccnc3N(C)S(C)(=O)=O)n2)cc1 [defactinib]
# Outline: as §1
# [2] = compound: CNc1nc(-c2ccc3c(N)n[nH]c3c2)cc(N2C[C@@H](C(=O)NC3CCCCC3)CC[C@H]2C)n1
# Outline: as §1
# [3] = compound: COC(=O)[C@H](CCSC)NC(=O)C1=C(C=C(C=C1)NC[C@H](CS)N)C2=CC=CC=C2
# Outline: as §1
# sotrastaurin = compound: CN1CCN(c2nc(C3=C(c4c[nH]c5ccccc45)C(=O)NC3=O)c3ccccc3n2)CC1 [sotrastaurin]
# Outline: as §1
# rucaparib = compound: CNCc1ccc(-c2[nH]c3cc(F)cc4c3c2CCNC4=O)cc1 [rucaparib]
# Outline: as §1
# encorafenib = compound: COC(=O)N[C@@H](C)CNc1nccc(-c2cn(C(C)C)nc2-c2cc(Cl)cc(NS(C)(=O)=O)c2F)n1 [encorafenib]
# Outline: as §1
Target,log2 fold change (saracatinib),log2 fold change (alvocidib),log2 fold change (Tubastatin A),log2 fold change [1],log2 fold change (defactinib),log2 fold change [2],log2 fold change [3],log2 fold change (sotrastaurin),log2 fold change (rucaparib),log2 fold change (encorafenib)
FGFR1OP2 (UniProt Q9NVK5),inactive: 0.029,inactive: -0.019,inactive: 0.011,inactive: -0.02,inactive: -0.127,inactive: 0.002,inactive: -0.041,–,–,–
FANCI (UniProt Q9NVI1),inactive: -0.022,–,inactive: -0.103,inactive: -0.111,inactive: -0.179,inactive: -0.002,inactive: -0.02,inactive: -0.099,inactive: 0.041,inactive: 0.003
FARS2 (UniProt O95363),inactive: -0.026,–,inactive: -0.045,inactive: 0.075,inactive: -0.023,inactive: 0.074,inactive: -0.054,inactive: -0.003,inactive: -0.026,inactive: 0.026
FECH isoform 2 (UniProt P22830),inactive: -0.035,–,inactive: -0.12,inactive: 0.245,inactive: 0.102,inactive: 0.538,inactive: -0.116,inactive: 0.008,inactive: 0.043,inactive: -0.033
FBXL4 (UniProt Q9UKA2),inactive: 0.402,–,–,–,inactive: 0.005,inactive: -0.046,inactive: -0.09,inactive: -0.065,–,–
FKRP (UniProt Q9H9S5),inactive: 0.08,–,inactive: 0,inactive: -0.049,inactive: -0.021,inactive: -0.044,inactive: 0.057,inactive: 0.071,inactive: 0.123,inactive: 0.053
FMC1 (UniProt Q96HJ9),inactive: 0.139,–,inactive: 0.034,inactive: 0.113,inactive: -0.056,inactive: -0.071,inactive: 0.051,inactive: 0.09,inactive: -0.023,inactive: -0.105
FIZ1 (UniProt Q96SL8),inactive: 0.149,–,–,–,inactive: 0.06,inactive: -0.095,inactive: 0.108,inactive: 0,inactive: -0.012,inactive: 0.069
FDPS (UniProt P14324),inactive: -0.151,–,inactive: 0.062,inactive: -0.097,inactive: -0.032,inactive: 0.237,inactive: -0.118,inactive: -0.041,inactive: -0.112,inactive: 0.137
FANCD2 isoform 1 (UniProt Q9BXW9),inactive: -0.038,–,inactive: -0.053,inactive: -0.126,inactive: -0.145,inactive: 0.028,inactive: -0.029,inactive: 0.017,inactive: 0.051,inactive: 0.009
FBXO3 (UniProt Q9UK99),inactive: 0.029,–,inactive: 0.157,inactive: -0.051,inactive: 0.072,inactive: -0.076,inactive: -0.005,inactive: 0.049,inactive: 0.016,inactive: 0.018
FAM83D (UniProt Q9H4H8),inactive: -0.014,–,inactive: -0.002,inactive: -0.004,inactive: -0.074,inactive: 0.03,inactive: -0.023,inactive: -0.055,inactive: 0.078,inactive: 0.071
FCGR2A (UniProt P12318),inactive: 0.107,–,inactive: -0.054,inactive: -0.019,inactive: -0.186,inactive: -0.238,inactive: 0.025,inactive: 0.101,inactive: 0.109,inactive: -0.082
FAT1 (UniProt Q14517),inactive: -0.085,–,inactive: -0.031,inactive: -0.041,inactive: -0.05,inactive: -0.094,inactive: -0.087,inactive: -0.072,–,–
FIBP (UniProt O43427),inactive: -0.074,–,inactive: 0.07,inactive: 0.002,inactive: -0.046,inactive: -0.085,inactive: 0.004,inactive: -0.05,active: 0.395,inactive: 0.039
FCHO1 (UniProt O14526),inactive: -0.064,–,inactive: 0.007,inactive: 0.043,inactive: -0.042,inactive: 0.054,inactive: 0.046,inactive: -0.162,inactive: 0.248,inactive: 0.101

Target,log2 fold change (saracatinib),log2 fold change (alvocidib),log2 fold change (Tubastatin A),log2 fold change [1],log2 fold change (defactinib),log2 fold change [2],log2 fold change [3],log2 fold change (sotrastaurin),log2 fold change (rucaparib),log2 fold change (encorafenib)
FDFT1 (UniProt P37268),inactive: 0.071,–,inactive: 0.012,inactive: -0.002,inactive: -0.02,inactive: -0.072,inactive: -0.028,active: 0.604,inactive: 0.004,inactive: -0.032
FAT3 isoform 1 (UniProt Q8TDW7),inactive: 0.297,–,–,inactive: 0.097,inactive: -0.066,inactive: 0.043,inactive: 0.093,inactive: 0.158,inactive: -0.106,inactive: -0.097
FBXO42 (UniProt Q6P3S6),inactive: -0.032,–,inactive: 0,inactive: -0.067,inactive: -0.165,inactive: 0.139,inactive: 0.012,inactive: 0.051,inactive: -0.073,inactive: 0.03
FBXW11 (UniProt Q9UKB1),inactive: 0.153,inactive: 0.156,inactive: 0.012,inactive: -0.073,inactive: 0.147,inactive: 0.008,inactive: -0.014,–,–,–
FIS1 (UniProt Q9Y3D6),active: 0.333,–,inactive: -0.021,inactive: -0.012,inactive: -0.063,inactive: 0.182,inactive: -0.022,inactive: 0.016,inactive: 0.004,inactive: -0.049
FLNA (UniProt P21333),inactive: -0.076,–,inactive: 0.052,inactive: 0.106,inactive: -0.042,inactive: 0.017,inactive: -0.053,inactive: -0.161,inactive: 0.1,inactive: 0.089
FBXO7 (UniProt Q9Y3I1),inactive: -0.003,–,inactive: 0.019,inactive: 0.012,inactive: -0.025,inactive: 0.028,inactive: -0.029,inactive: 0.052,inactive: 0.068,inactive: -0.009
FKBP4 (UniProt Q02790),inactive: -0.048,–,inactive: -0.009,inactive: 0.032,inactive: -0.055,inactive: 0.05,inactive: -0.036,inactive: -0.022,inactive: 0.016,inactive: 0.026
FCF1 (UniProt Q9Y324),inactive: -0.111,–,inactive: 0.07,–,inactive: 0.26,inactive: 0.2,inactive: -0.044,inactive: -0.116,inactive: 0.187,inactive: 0.121
FKBP10 (UniProt Q96AY3),–,–,–,–,–,–,–,inactive: 0.048,–,–
FBXO9 (UniProt Q9UK97),inactive: -0.024,–,inactive: -0.003,inactive: 0.141,inactive: 0.052,inactive: -0.014,inactive: -0.037,–,inactive: 0.055,inactive: 0.152
FIG4 (UniProt Q92562),–,–,–,inactive: 0.05,–,–,–,–,–,–
FHAD1 isoform 3 (UniProt B1AJZ9),inactive: 0.305,inactive: 0.21,inactive: -0.12,–,inactive: 0.086,inactive: 0.073,inactive: 0.229,–,–,–
FGFR1OP2 isoform 2 (UniProt Q9NVK5),–,inactive: -0.269,–,–,–,–,–,–,–,–
FBXO11 isoform 5 (UniProt Q86XK2),–,–,inactive: 0.036,inactive: -0.089,–,–,–,inactive: -0.017,–,–
FBXL8 (UniProt Q96CD0),–,inactive: -0.023,inactive: 0.273,inactive: -0.072,–,–,–,inactive: -0.418,inactive: -0.176,inactive: 0.062

# Reformatted with bars between the fields: entries from further up.
Target | log2 fold change (saracatinib) | log2 fold change (alvocidib) | log2 fold change (Tubastatin A) | log2 fold change [1] | log2 fold change (defactinib) | log2 fold change [2] | log2 fold change [3] | log2 fold change (sotrastaurin) | log2 fold change (rucaparib) | log2 fold change (encorafenib)
FKRP (UniProt Q9H9S5) | inactive: 0.08 | – | inactive: 0 | inactive: -0.049 | inactive: -0.021 | inactive: -0.044 | inactive: 0.057 | inactive: 0.071 | inactive: 0.123 | inactive: 0.053
FBXW11 (UniProt Q9UKB1) | inactive: 0.153 | inactive: 0.156 | inactive: 0.012 | inactive: -0.073 | inactive: 0.147 | inactive: 0.008 | inactive: -0.014 | – | – | –
